Binding data for two substances are collected here from paper PMC8803322.

Protein sequences, listed by entry. Tags and fused reporters are not part of them.
UniProt P35713: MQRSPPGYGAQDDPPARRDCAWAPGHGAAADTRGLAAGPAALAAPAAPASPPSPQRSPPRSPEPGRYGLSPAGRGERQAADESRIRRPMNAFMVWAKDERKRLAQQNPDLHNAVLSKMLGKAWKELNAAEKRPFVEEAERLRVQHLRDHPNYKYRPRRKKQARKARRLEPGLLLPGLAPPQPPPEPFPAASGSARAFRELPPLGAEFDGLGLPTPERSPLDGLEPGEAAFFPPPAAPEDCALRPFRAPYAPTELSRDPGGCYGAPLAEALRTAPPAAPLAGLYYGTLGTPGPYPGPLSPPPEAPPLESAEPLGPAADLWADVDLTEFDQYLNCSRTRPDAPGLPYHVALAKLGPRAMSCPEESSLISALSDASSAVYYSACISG
UniProt Q06330: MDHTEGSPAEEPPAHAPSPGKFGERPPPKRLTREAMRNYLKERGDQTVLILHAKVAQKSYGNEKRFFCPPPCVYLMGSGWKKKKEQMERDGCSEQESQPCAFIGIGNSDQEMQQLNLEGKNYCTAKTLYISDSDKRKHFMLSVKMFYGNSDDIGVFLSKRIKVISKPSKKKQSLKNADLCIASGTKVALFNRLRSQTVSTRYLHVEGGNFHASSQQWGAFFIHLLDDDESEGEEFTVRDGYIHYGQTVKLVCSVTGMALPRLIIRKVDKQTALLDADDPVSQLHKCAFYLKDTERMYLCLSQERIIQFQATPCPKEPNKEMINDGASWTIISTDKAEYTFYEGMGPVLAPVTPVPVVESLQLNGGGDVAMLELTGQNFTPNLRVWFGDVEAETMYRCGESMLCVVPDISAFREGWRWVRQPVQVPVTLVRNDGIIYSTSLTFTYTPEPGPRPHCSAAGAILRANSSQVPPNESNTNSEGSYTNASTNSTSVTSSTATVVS

No constants are given. Whether binding was seen depends on the method and setting. Some entries that bind do so weakly or less than the wild type.

The experiment deals with SRY (sex-determining region Y) box transcription factor 18 (SOX18) (human) (UniProt P35713). As to the kind of experiment: AlphaScreen or HTRF; AlphaLISAScreen on cell-free co-expressed protein pairs (N-terminal enhanced GFP or C-terminal mCherry tags); anti-GFP acceptor beads, biotinylated anti-mCherry nanobody, streptavidin donor beads; 90 minutes at room temperature; DMSO vehicle control defined as 100% binding (0% inhibition), SOX18:FRB control defined as 100% inhibition. In general terms: Bead proximity is the source of the signal in Alpha formats.

“recombinant signal binding protein for immunoglobulin κ J region (RBPJ) (from UniProt Q06330 1-500)”: the binding result was “binds”. In the case of “SRY (sex-determining region Y) box transcription factor 18 (SOX18) (from UniProt P35713 1-384)”, the binding result is “binds”.
